Test results from PubChem BioAssay AID2685 (National Center for Advancing Translational Sciences (NCATS), 2010).
The other results are listed elsewhere or left out. These are further read-outs of the screen, such as a control signal, another cell line or another target. No call is given for them. Most of these compounds were active or inconclusive in the main read-out, so they are no random draw. The note in brackets gives the kind of curve behind each potency; many fits are weak.

Experiment: qHTS Assay for Lipid Storage Modulators in Drosophila S3 Cells;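 for cell number change: cells counted by Cell Tracker Red CMTPX staining in the red channel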
Details: BODIPY lipid droplet fluorescence, 18-24 h; for cell number change: measured here: cell count max response, cells fed with added oleic acid
How it was run: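 Drosophila S3 cells loaded with oleic acid (400 uM, as added) and compounds at several concentrations; lipid droplets imaged by 488-nm laser-scanning cytometry, 500–530 nm intensity and object ratio to cell channel. Percent activity normalized to 20 uM Triacsin C.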

[1] = measured here: cell number channel AC50, cells fed with added oleic acid
[2] = measured here: lipid fluorescence (Fed channel) AC50, cells fed with added oleic acid

Row | Compound | AC50 [1] | cell number change [%] | AC50 [2]
1 | O=C(CSc1nc2ccccc2nc1SCC(=O)N1CCOCC1)N1CCOCC1 | 2.06 µM [rising, partial curve] | – | –
2 | C/C(=N\NC(=O)c1ccc2ccccc2c1)c1cccnc1 | 2.06 µM [rising, partial curve, poor fit] | 4.11 | 3.66 µM [rising, single point]
3 | COc1cc(CNc2ncnc3c2[nH]c2ccc(C)cc23)cc(OC)c1 | 5.17 µM [falling, partial curve, poor fit] | -43.4 | 0.103 µM [rising, full curve, poor fit]
4 | O=C1C=C(N2CCOCC2)C2(CCCCC2)O1 | – | -23.1 | –
5 | O=C1c2ccccc2C(=O)N1S(=O)(=O)c1ccccc1 | – | 12.9 | –
6 | CCCNC(=O)Cn1cnc2sc(C(=O)N3CCN(CCC)CC3)c(C)c2c1=O | – | – | 0.00461 µM [falling, full curve]
7 | CN(Cc1ccccc1)C1(CNC(=O)CCC(F)(F)F)Cc2ccccc2C1 | – | 24.6 | –
8 | CCCCOC(=O)c1ccc(N=Nc2c(C)c(C#N)c(O)[nH]c2=O)cc1 | 0.291 µM [rising, full curve] | – | –
9 | COCCn1cc(C(=O)NCCCOC(C)C)c2c3ccccc3n(C)c2c1=O | 16.4 µM [rising, single point] | 35.1 | –
10 | Cc1nn(C)cc1CNC(=O)Nc1ccc(Br)cc1Cl | – | – | 3.26 µM [rising, partial curve]
11 | Cc1ccccc1C(=O)NC(=S)Nc1ccccc1C(F)(F)F | 7.31 µM [rising, partial curve, poor fit] | 78 | –
12 | CCN(CC)CCCNc1nc(SC)nc2sc3c(c12)CCN(C)C3 | 29.1 µM [rising, single point] | 33.3 | –
13 | CC1CCCC(NC(=O)CCn2c(=O)oc3ccccc32)C1C (centres undefined) | – | 9.68 | 0.184 µM [rising, full curve, poor fit]
14 | O=c1[nH]c(C2CCCN(S(=O)(=O)c3ccc(F)cc3)C2)nc2c1nnn2Cc1ccc(F)cc1 (centres undefined) | – | -17.1 | –
15 | Nc1nc(O)c(N=Nc2ccc(S(N)(=O)=O)cc2)c(=O)[nH]1 | 4.61 µM [rising, single point] | – | –
16 | COc1ccc(S(=O)(=O)N2CCC(C(=O)NCCc3c[nH]c4ccccc34)CC2)cc1 | – | -2.82 | –
17 | C=CCOc1c(OC)cc(/C=N/Nc2cccc(C(=O)O)c2)c(Br)c1Br | – | 22.3 | 16.4 µM [rising, single point]
18 | Cc1ccc(C(=O)C(C)OC(=O)Cn2c(C)csc2=O)cc1 (centres undefined) | – | 5.23 | 9.2 µM [rising, partial curve]
19 | CC(C)N(Cc1nc(-c2ccc(Cl)cc2)no1)C(=O)CCC1CCCC1 | 10.3 µM [rising, partial curve] | 106 | 11.6 µM [rising, partial curve]
20 | CC(=O)NCCC(=O)Nc1cc(S(=O)(=O)N2CCCCC2)ccc1Oc1cccc(C)c1 | – | -14.6 | 3.66 µM [falling, full curve]
21 | CCc1nnc(SCc2ccc(C(=O)OC)o2)n1N | – | -17.6 | –

Taken from above.
CC(=O)NCCC(=O)Nc1cc(S(=O)(=O)N2CCCCC2)ccc1Oc1cccc(C)c1 | cell number change [%]: -14.6
COc1cc(CNc2ncnc3c2[nH]c2ccc(C)cc23)cc(OC)c1 | AC50 [1]: 5.17 µM [falling, partial curve, poor fit]

Additional entries follow.

Row | Compound | AC50 [1] | cell number change [%] | AC50 [2]
22 | O=C(Nc1cn(-c2ccccc2)nc1-c1ccccc1)c1ccccc1 | – | 28.7 | 29.1 µM [rising, single point]
23 | COC(=O)c1cc(S(=O)(=O)N2CCN(c3ccccc3OC)CC2)cn1C | – | 15.2 | 0.116 µM [rising, single point]
24 | Cc1ccc(C(=O)CN2C(=O)NC3(CCc4ccccc43)C2=O)s1 (centres undefined) | – | 11.4 | 29.1 µM [falling, single point]
25 | CCOc1cc(CNc2ccccc2)cc(Br)c1OCC(=O)NC(C)(C)C | 20.6 µM [rising, single point] | 41.5 | 14.6 µM [rising, partial curve]
26 | O=C(O)CCc1nn2cnc3sc4c(c3c2nc1=O)CCCC4 | – | 10.3 | 29.1 µM [falling, single point]
27 | CC(=O)c1ccc(C(=O)N(C)C2CCCN(Cc3ccccc3F)C2)s1 (centres undefined) | – | -25.7 | 29.1 µM [rising, single point]
28 | Cc1ccc2oc(NC(=O)N3CCOCC3)cc(=O)c2c1 | – | -2.03 | 2.91 µM [rising, full curve]
29 | Cc1nc2sc(C(=O)c3ccccc3)c(N)c2c(C)c1C | – | 8.81 | 2.59 µM [rising, single point]
30 | CN(C(=O)CO/N=C/c1ccc(OC(F)F)cc1)C1CCS(=O)(=O)C1 (centres undefined) | – | -23.6 | 1.64 µM [falling, partial curve, poor fit]
31 | Cc1cccc2nc(Cn3c(=O)n(CCC(=O)NCc4ccco4)c(=O)c4sccc43)cc(=O)n12 | – | 14.2 | 0.0731 µM [rising, full curve, poor fit]
32 | Cc1nnc(NC(=O)c2cccc(F)c2)s1 | – | – | 1.84 µM [falling, partial curve]
33 | CCOC(=O)c1ccc2c(c1)C1C=CCC1C(C(=O)O)N2 (centres undefined) | – | 2.34 | 5.17 µM [rising, single point]
34 | Cc1sc(NC(=O)Cc2ccc3c(c2)OCO3)nc1-c1ccc2c(c1)CCN2C(=O)c1cccc(F)c1 | – | -0.854 | 5.8 µM [rising, single point]
35 | COc1ccccc1C1C([N+](=O)[O-])=CC([N+](=O)[O-])=CN1C (centres undefined) | – | -18.3 | 29.1 µM [falling, single point]
36 | S=c1[nH]nc(-c2ccco2)n1-c1ccccc1Cl | – | 15.2 | 0.0058 µM [rising, full curve, poor fit]
37 | Cc1ccc(S(=O)(=O)N2CCN(C(=O)c3ccco3)CC2)cc1 | – | 6.32 | 6.51 µM [falling, single point]
38 | Cc1cccc(OCCCc2c(C)n[nH]c2C)c1 | – | -27.4 | –
39 | O=C(CCC(=O)N(CC(=O)NC1CCCC1)Cc1ccc(F)cc1)Nc1nccs1 | – | 11.7 | –
40 | Cc1ccc(/C(=N/Nc2nc3ccccc3s2)C2=C(O)c3ccccc3C2=O)cc1 | 0.146 µM [rising, full curve, poor fit] | 48.8 | 23.1 µM [rising, partial curve, poor fit]
41 | NC(=S)N/N=C/c1cn(-c2ccccc2)nc1-c1cccnc1 | 32.6 µM [falling, single point] | -41.6 | 1.84 µM [falling, partial curve]

An excerpt from above in order of length of the SMILES, low to high.
Row | Compound | AC50 [1] | cell number change [%] | AC50 [2]
29 | Cc1nc2sc(C(=O)c3ccccc3)c(N)c2c(C)c1C | – | 8.81 | 2.59 µM [rising, single point]
35 | COc1ccccc1C1C([N+](=O)[O-])=CC([N+](=O)[O-])=CN1C (centres undefined) | – | -18.3 | 29.1 µM [falling, single point]
34 | Cc1sc(NC(=O)Cc2ccc3c(c2)OCO3)nc1-c1ccc2c(c1)CCN2C(=O)c1cccc(F)c1 | – | -0.854 | 5.8 µM [rising, single point]
